This is an account of results in publication PMC4991497.

The target of this experiment is T1, Flag-DNM2 (UniProt P50570).
T1 sequence: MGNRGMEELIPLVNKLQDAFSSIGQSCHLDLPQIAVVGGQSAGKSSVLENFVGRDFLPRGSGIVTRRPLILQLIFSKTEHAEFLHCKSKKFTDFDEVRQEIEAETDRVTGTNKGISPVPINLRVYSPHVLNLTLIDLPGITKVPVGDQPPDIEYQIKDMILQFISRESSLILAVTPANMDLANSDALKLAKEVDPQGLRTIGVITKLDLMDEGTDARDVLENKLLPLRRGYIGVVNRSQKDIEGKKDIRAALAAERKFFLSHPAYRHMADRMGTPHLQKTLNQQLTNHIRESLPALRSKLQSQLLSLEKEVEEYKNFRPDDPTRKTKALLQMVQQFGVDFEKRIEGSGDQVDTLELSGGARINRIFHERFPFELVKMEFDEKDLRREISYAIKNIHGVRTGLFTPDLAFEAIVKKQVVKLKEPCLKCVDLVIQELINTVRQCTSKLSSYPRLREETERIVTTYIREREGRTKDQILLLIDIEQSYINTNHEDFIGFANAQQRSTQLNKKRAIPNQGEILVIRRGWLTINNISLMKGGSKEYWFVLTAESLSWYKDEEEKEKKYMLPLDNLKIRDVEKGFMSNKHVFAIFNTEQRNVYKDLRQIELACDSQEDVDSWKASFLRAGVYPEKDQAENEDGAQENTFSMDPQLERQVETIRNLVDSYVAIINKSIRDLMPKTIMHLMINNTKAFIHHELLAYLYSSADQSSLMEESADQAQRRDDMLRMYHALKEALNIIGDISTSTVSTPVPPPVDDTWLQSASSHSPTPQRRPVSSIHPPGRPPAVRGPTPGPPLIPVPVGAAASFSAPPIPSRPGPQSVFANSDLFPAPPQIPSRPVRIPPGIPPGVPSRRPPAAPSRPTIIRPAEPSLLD
Kind of experiment: co-IP; 293T cells co-transfected with Flag-DNM2 and Bif-1 or its deletion mutants; 1% Triton X-100 lysis buffer (30 mM Tris-HCl pH 7.5, 150 mM NaCl, 10% glycerol); immunoprecipitation with anti-Flag antibody; immunoblot. In general terms: A western blot detects proteins with antibodies after separation by electrophoresis.

These are yes or no findings as the source states them, for the method shown. Binding seen in cells or lysates may run through a third protein. Sequences can lack the tags named with a protein.

On to “Bif-1 (ΔSH3)-Myc (human) (domain or fragment)”, for which the binding result is reported as “no binding”.
